Assay results taken from patent US20190290650A1, “FORMULATIONS/COMPOSITIONS COMPRISING A BTK INHIBITOR” (Janssen Pharmaceutic NV, priority 2016, published 2019).
At least one compound was matched to its structure with a doubt left.

Test system: OCI-Ly10
Experiment: Induction of apoptosis in OCI-Ly10 (caspase activation, Annexin-V flow cytometry, sub-G0 fraction)
Format: cell-based
Details: increase in sub-G0 fraction

C=CC(=O)N1CCC[C@@H](n2nc(-c3ccc(Oc4ccccc4)cc3)c3c(N)ncnc32)C1 [Compound 1, 1-((R)-3-(4-amino-3-(4-phenoxyphenyl)-1H-pyrazolo[3,4-d]pyrimidin-1-yl)piperidin-1-yl)prop-2-en-1-one]
Induction of apoptosis: induction of apoptosis
